Measurements as given in patent publication US20060100431A1, “Biologically active compounds” (Amura Therapeutics Limited, priority 2002, published 2006).
Some entries share one result that the patent states for a list of compounds. Some ranges recur; such a range may be that of the whole group of compounds.

target: T1, human cathepsin K (Homo sapiens, UniProt P43235); assay: Cathepsin K peptidase activity assay (Ki); assay type: biochemical
T1 construct: Dr. Boris Turk (Josef Stefan Institute, Ljubljana, Slovenia)
T1 sequence (P43235 115-329): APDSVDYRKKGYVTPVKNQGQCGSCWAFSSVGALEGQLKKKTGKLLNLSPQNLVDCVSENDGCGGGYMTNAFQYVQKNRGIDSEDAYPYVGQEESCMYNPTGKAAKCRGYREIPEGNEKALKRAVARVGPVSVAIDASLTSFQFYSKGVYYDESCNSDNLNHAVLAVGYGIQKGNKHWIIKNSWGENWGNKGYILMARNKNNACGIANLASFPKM
Method in brief: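 Buffer: 10 mM bis-tris-propane pH 6.5, 1 mM EDTA, 5 mM 2-mercaptoethanol, 1 mM CaCl2; DMSO <1%. Ki assumed reversible, pure-competitive, from Ki^app=Ki(1+[So]/KM^app) by non-linear regression.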

Q: `CC(C)C[C@H](NC(=O)c1ccc(-c2cccs2)cc1)C(=O)N1CC[C@@H]2[C@H]1C(=O)CN2S(=O)(=O)c1ccccc1` [Example 120, (3aR,6aS)-N-[(1S)-1-(4-Benzenesulfonyl-6-oxo-hexahydropyrrolo [3,2-b]pyrrole-1-carbonyl)-3-methyl-butyl]-4-thiophen-2-yl-benzamide] was tested. Which “Ki, inhibitors of cathepsin K” value did it give?
A: 1 to 5000 nM

Q: With `CC(C)C[C@H](NC(=O)c1ccc(N(C)C)cc1)C(=O)N1CC[C@@H]2[C@H]1C(=O)CN2C(=O)[C@@H]1C[C@@H](O)CN1` [Example 218, (3aR,6aS)-4-Dimethylamino-N-{(1S)-1-[4-((2S,4R)-4-hydroxy-pyrrolidine-2-carbonyl)-6-oxo-hexahydro-pyrrolo[3,2-b]pyrrole-1-carbonyl]-3-methyl-butyl}-benzamide] as the compound, how does the “Ki, inhibitors of cathepsin K” value read?
A: 1 to 5000 nM

Q: `CC(C)C[C@H](NC(=O)c1ccc(N(C)C)cc1)C(=O)N1CC[C@@H]2[C@H]1C(=O)CN2C(=O)C1CC1` [Example 131, (3aR,6aS)-N-[(1S)-1-(4-Cyclopropanecarbonyl-6-oxo-hexahydro-pyrrolo[3,2-b]pyrrole-1-carbonyl)-3-methyl-butyl]-4-dimethylamino-benzamide] was tested. Which “Ki, inhibitors of cathepsin K” value did it give?
A: 1 to 5000 nM

Q: How did the “Ki, inhibitors of cathepsin K” value turn out when `CCc1ccc(C(=O)N[C@@H](CC(C)C)C(=O)N2CC[C@@H]3[C@H]2C(=O)CN3C(=O)c2ccccc2)cc1` [Example 171, (3aR,6aS)-N-[(1S)-1-(4-Benzoyl-6-oxo-hexahydro-pyrrolo[3,2-b]pyrrole-1-carbonyl)-3-methyl-butyl]-4-ethyl-benzamide] was run?
A: 1 to 5000 nM

Q: `CC(C)C[C@H](NC(=O)c1cnc2ccccc2n1)C(=O)N1CC[C@@H]2[C@H]1C(=O)CN2C(=O)c1cccnc1` [Example 19, (3aR,6aS)-Quinoxaline-2-carboxylic acid {(1S)-3-methyl-1-[6-oxo-4-(pyridine-3-carbonyl)-hexahydro-pyrrolo[3,2-b]pyrrole-1-carbonyl]-butyl}-amide] was tested. Which “Ki, inhibitors of cathepsin K” value did it give?
A: 1 to 5000 nM

Q: Which “Ki, inhibitors of cathepsin K” value does the source give for `CCC(=O)N1CC(=O)[C@@H]2[C@H]1CCN2C(=O)[C@H](CC(C)C)NC(=O)c1ccc(N(C)C)cc1` [Example 126, (3aR,6aS)-4-Dimethylamino-N-[(1S)-3-methyl-1-(6-oxo-4-propionyl-hexahydro-pyrrolo[3,2-b]pyrrole-1-carbonyl)-butyl]-benzamide] here?
A: 1 to 5000 nM

Q: `CC(C)C[C@H](NC(=O)c1ccc(N(C)C)cc1)C(=O)N1CC[C@@H]2[C@H]1C(=O)CN2C(=O)[C@@H](O)CC(C)C` [Example 233, (3aR,6aS)-4-Dimethylamino-N-{(1S)-1-[4-((2S)2-hydroxy-4 methyl-pentanoyl)-6-oxo-hexahydro-pyrrolo[3,2-b]pyrrole-1-carbonyl]-3-methyl-butyl}-benzamide] was tested. Which “Ki, inhibitors of cathepsin K” value did it give?
A: 1 to 5000 nM

Q: For `CC(C)C[C@H](NC(=O)c1ccc(N(C)C)cc1)C(=O)N1CC[C@@H]2[C@H]1C(=O)CN2C(=O)C(C)C` [Example 129, (3aR,6aS)-4-Dimethylamino-N-[(1S)-1-(4-isobutyryl-6-oxo-hexahydro-pyrrolo[3,2-b]pyrrole-1-carbonyl)-3-methyl-butyl]-benzamide], which “Ki, inhibitors of cathepsin K” value is on record?
A: 1 to 5000 nM

Q: With `Cc1cc(C(=O)N2CC(=O)[C@@H]3[C@H]2CCN3C(=O)[C@H](CC(C)C)NC(=O)c2ccc(N(C)C)cc2)ccc1F` [Example 115, (3aR,6aS)-4-Dimethylamino-N-{(1S)-1-[4-(4-fluoro-3-methyl-benzoyl)-6-oxo-hexahydro-pyrrolo[3,2-b]pyrrole-1-carbonyl]-3-methyl-butyl}-benzamide] as the compound, how does the “Ki, inhibitors of cathepsin K” value read?
A: 1 to 5000 nM

Q: How did the “Ki, inhibitors of cathepsin K” value turn out when `CC(C)C[C@H](NC(=O)c1ccc(N(C)C)cc1)C(=O)N1CC[C@@H]2[C@H]1C(=O)CN2C(=O)c1cccc(Cl)c1` [Example 73, (3aR,6aS)-N-{(1S)-1-[4-(3-Chloro-benzoyl)-6-oxo-hexahydro-pyrrolo[3,2-b]pyrrole-1-carbonyl]-3-methyl-butyl}-4-dimethylamino-benzamide] was run?
A: 1 to 5000 nM

Q: `Cc1c(C(=O)N[C@@H](CC(C)C)C(=O)N2CC[C@@H]3[C@H]2C(=O)CN3C(=O)c2ccccc2)oc2ccccc12` [Example 10, (3aR,6aS)-3-Methyl-benzofuran-2-carboxylic acid [(1S)-1-(4-benzoyl-6-oxo-hexahydro-pyrrolo[3,2-b]pyrrole-1-carbonyl)-3-methyl-butyl]-amide] was tested. Which “Ki, inhibitors of cathepsin K” value did it give?
A: 1 to 5000 nM

Q: With `CC(C)C[C@H](NC(=O)c1ccc(N(C)C)cc1)C(=O)N1CC[C@@H]2[C@H]1C(=O)CN2C(=O)[C@H](Cc1ccccc1)NC(=O)OCc1ccccc1` [Example 160, (3aS,6aR)-((1S)-1-Benzyl-2-{-[(2S)-2-(4-dimethylamino-benzoylamino)-4-methyl-pentanoyl]-3-oxo-hexahydro-pyrrolo[3,2-b]pyrrole-1-yl}-2-oxo-ethyl)-carbamic acid benzyl ester] as the compound, how does the “Ki, inhibitors of cathepsin K” value read?
A: 1 to 5000 nM

Q: For `CCC[C@H](NC(=O)c1ccc(C(C)(C)C)cc1)C(=O)N1CC[C@@H]2[C@H]1C(=O)CN2C(=O)c1ccccc1` [Example 11, (3aR,6aS)-N-[(1S)-1-(4-Benzoyl-6-oxo-hexahydro-pyrrolo[3,2-b]pyrrole-1-carbonyl)-butyl]-4-tert-butyl-benzamide], which “Ki, inhibitors of cathepsin K” value is on record?
A: 1 to 5000 nM

Q: How did the “Ki, inhibitors of cathepsin K” value turn out when `CC(C)C[C@H](NC(=O)c1ccc(N(C)C)cc1)C(=O)N1CC[C@@H]2[C@H]1C(=O)CN2C(=O)CNC(=O)OCc1ccccc1` [Example 38, (3aS,6aR)-(2-{4-[(2S)-2-(4-Dimethylamino-benzoylamino)-4-methyl-pentanoyl]-3-oxo-hexahydro-pyrrolo[3,2-b]pyrrole-1-yl}-2-oxo-ethyl)-carbamic acid benzyl ester] was run?
A: 1 to 5000 nM

Q: `CC(C)C[C@H](NC(=O)c1ccc(C(C)(C)C)cc1)C(=O)N1CC[C@@H]2[C@H]1C(=O)CN2C(=O)c1cccnc1` [Example 5, (3aR,6aS)-4-tert-Butyl-N-{(1S)-3-methyl-1-[6-oxo-4-(pyridine-3-carbonyl)-hexahydro-pyrrolo[3,2-b]pyrrole-1-carbonyl]-butyl}-benzamide] was tested. Which “Ki, inhibitors of cathepsin K” value did it give?
A: 1 to 5000 nM

Q: Which “Ki, inhibitors of cathepsin K” value does the source give for `CC[C@H](C)[C@H](N)C(=O)N1CC(=O)[C@@H]2[C@H]1CCN2C(=O)[C@H](CC(C)C)NC(=O)c1ccc(N(C)C)cc1` [Example 209, (3aR,6aS)-N-{(1S)-1-[4-((2S,3S)-2-Amino-3-methyl-pentanoyl)-6-oxo-hexahydro-pyrrolo[3,2-b]pyrrole-1-carbonyl]-3-methyl-butyl}-4-dimethylamino-benzamide] here?
A: 1 to 5000 nM

Q: Which “Ki, inhibitors of cathepsin K” value does the source give for `CC(C)C[C@H](NC(=O)c1ccc2ccccc2n1)C(=O)N1CC[C@@H]2[C@H]1C(=O)CN2C(=O)c1ccccc1` [Example 8, (3aR,6aS)-Quinoline-2-carboxylic acid [(1S)-1-(4-benzoyl-6-oxo-hexahydro-pyrrolo[3,2-b]pyrrole-1-carbonyl)-3-methyl-butyl]-amide] here?
A: 1 to 5000 nM

Q: With `CC(C)C[C@H](NC(=O)c1ccc(N(C)C)cc1)C(=O)N1CC[C@@H]2[C@H]1C(=O)CN2C(=O)c1ccccc1Cl` [Example 72, (3aR,6aS)-N-{(1S)-1-[4-(2-Chloro-benzoyl)-6-oxo-hexahydro-pyrrolo[3,2-b]pyrrole-1-carbonyl)-3-methyl-butyl}-4-dimethylamino-benzamide] as the compound, how does the “Ki, inhibitors of cathepsin K” value read?
A: 1 to 5000 nM

Q: `CC(C)C[C@H](NC(=O)c1ccc(C(C)(C)C)cc1)C(=O)N1CC[C@@H]2[C@H]1C(=O)CN2C(=O)c1ccccc1` [Example 1, (3aR,6aS)-N-[(1S)-1-(4-Benzoyl-6-oxo-hexahydro-pyrrolo[3,2-b]pyrrole-1-carbonyl)-3-methyl-butyl]-4-tert-butylbenzamide] was tested. Which “Ki, inhibitors of cathepsin K” value did it give?
A: 1 to 5000 nM

Q: How did the “Ki, inhibitors of cathepsin K” value turn out when `COC(=O)c1ccc(C(=O)N2CC(=O)[C@@H]3[C@H]2CCN3C(=O)[C@H](CC(C)C)NC(=O)c2ccc(N(C)C)cc2)cc1` [Example 76, (3aS,6aR)-4-{4-[(2S)-2-(4-Dimethylamino-benzoylamino)-4-methyl-pentanoyl]-3-oxo-hexahydro-pyrrolo[3,2-b]pyrrole-1-carbonyl}-benzoic acid methyl ester] was run?
A: 1 to 5000 nM

Q: How did the “Ki, inhibitors of cathepsin K” value turn out when `CN(C)c1ccc(C(=O)N[C@@H](CC2CC2)C(=O)N2CC[C@@H]3[C@H]2C(=O)CN3C(=O)c2ccccc2)cc1` [Example 186, (3aR,6aS)-N-[(1S)-2-(4-Benzoyl-6-oxo-hexahydro-pyrrolo[3,2-b]pyrrol-1-yl)-1-cyclopropylmethyl-2-oxo-ethyl]-4-dimethylamino-benzamide] was run?
A: 1 to 5000 nM

Q: With `CC(C)C[C@H](NC(=O)c1ccc(N(C)C)cc1)C(=O)N1CC[C@@H]2[C@H]1C(=O)CN2C(=O)c1ccc2nonc2c1` [Example 102, (3aR,6aS)-N-{(1S)-1-[4-(Benzo[1,2,5]oxadiazole-5-carbonyl)-6-oxo-hexahydro-pyrrolo[3,2-b]pyrrole-1-carbonyl]-3-methyl-butyl}-4-dimethylamino-benzamide] as the compound, how does the “Ki, inhibitors of cathepsin K” value read?
A: 1 to 5000 nM

Q: With `CC(C)C[C@H](NC(=O)c1ccc(Oc2ccccc2)cc1)C(=O)N1CC[C@@H]2[C@H]1C(=O)CN2C(=O)c1ccccc1S(C)(=O)=O` [Example 40, (3aR,6aS)-N-{(1S)-1-[4-(2-Methanesulfonyl-benzoyl)-6-oxo-hexahydro-pyrrolo[3,2-b]pyrrole-1-carbonyl]-3-methyl-butyl}-4-phenoxy-benzamide] as the compound, how does the “Ki, inhibitors of cathepsin K” value read?
A: 1 to 5000 nM

Q: With `CC(C)C[C@H](NC(=O)c1cccc(CN)c1)C(=O)N1CC[C@@H]2[C@H]1C(=O)CN2C(=O)[C@H](N)c1ccccc1` [Example 181, (3aR,6aS)-3-Aminomethyl-N-{(1S)-1-[4-((2R)-2-amino-2-phenyl-acetyl)-6-oxo-hexahydro-pyrrolo[3,2-b]pyrrole-1-carbonyl]-3-methyl-butyl}-benzamide] as the compound, how does the “Ki, inhibitors of cathepsin K” value read?
A: 1 to 5000 nM
